The test in a line: qHTS Assay to Find Inhibitors of Chronic Active B-Cell Receptor Signaling. As to conditions: ABC-DLBCL IkBa-CBG/CBR reporter, luminescence ratio (green luciferase fused to IkBa over red control in TMD8 lymphoma cells), 4 h. A digest of the protocol:
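Concentration-response series (up to 46 uM) were applied to TMD8 dual-reporter cells for 4 h at 37C with doxycycline. Green/red ratio, after filter-overlap correction, defined %Activity; red signal alone was normalised to basal cells and zero luminescence.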
For orientation: In qHTS, concentration-response curves come from the screen itself.

The mark [1] stands for this setting: measured here: CBR red luminescence, cell number.
Where [2] appears, read: measured here: IkBa-CBG green luminescence.

The AC50 is the midpoint of the concentration-response curve, whichever way the signal moves.

Each structure is given as a SMILES string. The list shows a part of the results. The main result of the screen is listed elsewhere. These columns were measured beside it and carry no call. Compounds called inactive in the main read-out are mostly missing here. The note in brackets gives the kind of curve behind each potency; many fits are weak.

On to `O=[N+]([O-])c1ccc(/C=C/C2=NN(c3ccccc3)C(c3ccco3)C2)o1` (stereo not drawn), for which the AC50 under setting [1] was 3.16 µM [rising, full curve, poor fit]. Same read-out and setting: under `O=C(Nc1ccccc1)OCCCCCOC(=O)Nc1ccccc1` stands 12.6 µM [rising, partial curve, poor fit]; under `O=C(CC(=O)c1ccccc1)Nc1ccc(Cl)cc1`, 11.2 µM [falling, single point]. Still for that read-out and setting: under `Cc1cc(C)c(S(=O)(=O)c2cccc(Br)c2C)c(Cl)n1` stands 10 µM [rising, partial curve, poor fit]; under `COc1cccc(N/C(SCc2cccc([N+](=O)[O-])c2)=C(/C#N)C(N)=O)c1`, 10 µM [falling, partial curve, poor fit]; under `Cc1nnc2c(NCCc3ccccc3)nc3ccccc3n12`, 25.1 µM [rising, single point]. On to `CCC(NC(=O)NNC(N)=S)(C(F)(F)F)C(F)(F)F`, for which the AC50 is 11.2 µM [falling, partial curve] under setting [1] and 35.5 µM [falling, single point] under setting [2]. Take `CCSc1nc2c(cnn2-c2ccccc2)c(=O)n1N`: the AC50 under setting [1] was 14.1 µM [falling, single point]. Take `CCN1C(=O)/C(=C\N(C(C)=O)c2ccccc2)OC1=S`: the AC50 under setting [1] is 7.31 µM [falling, partial curve]. On to `COc1ccc(/C=N/N=C(\N)c2nonc2N)cc1OC`, for which the AC50 under setting [1] is 15.8 µM [falling, partial curve]. On to `Cc1ccc(S(=O)(=O)N2CCC(CN3C(=O)c4cccc5cccc(c45)C3=O)CC2)cc1`, for which, under setting [1], the concentration at half-maximal activity (AC50) was 5.62 µM [falling, single point]. Same read-out and setting: under `CCn1c(SCC(=O)Nc2cc(C)on2)nnc1-c1c[nH]c2ccccc12` stands 11.2 µM [falling, partial curve, poor fit]; under `CCN(CC(=O)Nc1ccc(NC(C)=O)cc1)C(=O)CSc1ncnc2sc(C)c(C)c12`, 29.1 µM [rising, partial curve, poor fit].

`Cc1ccc(-c2noc(CN(C(=O)c3cccs3)C(C)C)n2)cc1`: the AC50 under setting [1] was 1.84 µM [rising, full curve]. Regarding `Cc1cc(NC(=O)c2ccc(S(=O)(=O)N(C)C)cc2)no1`, the AC50 under setting [1] is 8.2 µM [falling, partial curve, poor fit].

For `COc1ccc(OCCCCOc2ccccc2Cl)cc1`, under setting [1], the AC50 was 10 µM [rising, partial curve]. `NS(=O)(=O)c1cc(C(=O)N2CCc3ccccc32)c(Cl)cc1Cl`: the AC50 under setting [1] was 9.2 µM [rising, partial curve, poor fit]. In the case of `Cc1ccsc1/C=N/n1c(=S)[nH]nc(C)c1=O`, under setting [1], the AC50 was 25.9 µM [rising, single point]. Still for that read-out and setting: under `NC(=S)N/N=C/c1ccc(OC(=O)c2cccnc2)cc1` stands 25.1 µM [falling, single point].

`CC12CCC(=O)N1C(C(=O)Nc1nc3ccc(F)cc3s1)CS2` (stereo not drawn): under setting [1], the AC50 is 29.1 µM [rising, single point]. For the compound `O=C(CSc1ncnc2sccc12)Nc1ccccc1`, under setting [1], the AC50 is 31.6 µM [falling, single point]. Same read-out and setting: the same measure for `Cc1nc(SCC(=O)NC2CCS(=O)(=O)C2)c2c3c(sc2n1)CCCC3` (stereo not drawn): 23.1 µM [rising, partial curve, poor fit]. For `O=C(NC(=S)NC1CCSC1=O)c1cccs1` (stereo not drawn), the concentration at half-maximal activity (AC50) under setting [2] was 32.6 µM [falling, partial curve, poor fit].

On to `Cc1ccc(Cn2c(N/N=C/c3ccncc3)nc3c2c(=O)n(C)c(=O)n3C)cc1`, for which the AC50 under setting [1] was 3.16 µM [rising, single point].

For the compound `CCc1ccc2c(CC(=O)Nc3cccc(S(=O)(=O)N4CCOCC4)c3)coc2c1`, the AC50 under setting [1] is 29.1 µM [falling, single point]. Still for that read-out and setting: the same measure for `Fc1cccc(NC(=S)N2CCCC2)c1`: 25.9 µM [rising, single point]; for `CCCCN(C)S(=O)(=O)c1c(C)[nH]c(=O)[nH]c1=O`: 1.64 µM [rising, full curve, poor fit]. For the compound `O=C(N/N=C/c1cccc([N+](=O)[O-])c1)c1ccc2nc[nH]c2c1`, the AC50 under setting [1] was 29.1 µM [falling, single point].

Regarding `CC(=O)NC1(C(F)(F)F)NC(=O)N(c2ccc(F)cc2)C1=O` (stereo not drawn), under setting [1], the AC50 was 3.55 µM [rising, single point]. On the same count and under the same terms, under `CCOC(=O)N1CCC(Nc2nc3ccccc3n3nnnc23)CC1` stands 1.78 µM [falling, full curve]; under `COc1ccccc1C(=O)NC(=S)Nc1ccc(Cc2ccncc2)cc1`, 12.6 µM [falling, single point]; under `Cc1ccc(NC(=O)c2ccccc2SCC(=O)N2CCCC2)cc1S(=O)(=O)N(C)C`, 0.794 µM [rising, full curve, poor fit]. Same read-out and setting: under `Cc1nc(SCC(=O)c2ccc(F)cc2)n[nH]1` stands 35.5 µM [rising, single point]; under `O=C(/C=C/c1ccc(-c2ccccc2[N+](=O)[O-])o1)c1ccc(F)cc1`, 35.5 µM [falling, single point]; under `N#CCCN(Cc1cccnc1)C(=S)NC(=O)c1ccco1`, 10 µM [falling, partial curve, poor fit]. Same read-out and setting: the same measure for `S=c1nc[nH]c2c1[nH]c1ccc(Cl)cc12`: 3.55 µM [rising, single point]. As for `CCc1ccc(C(=O)NNC(=S)Nc2ccc(S(N)(=O)=O)cc2)s1`, under setting [1], the AC50 was 11.2 µM [falling, partial curve]. Still for that read-out and setting: the same measure for `O=C1CCCN1C(=O)CSc1ccc2ccccc2n1`: 4.11 µM [rising, full curve, poor fit]; for `CCOC(=O)c1ccc(-n2c(N)c(C(=O)NCc3ccco3)sc2=S)cc1`: 12.6 µM [rising, single point]. As for `COc1ccc(Nc2nc(-c3c(C)nc4ncccn34)cs2)cc1`, the AC50 under setting [2] is 2.82 µM [falling, full curve]. For `Cc1ccccc1S(=O)(=O)NNC(=O)C(=O)NNc1ccccn1`, the AC50 under setting [1] is 4.11 µM [falling, full curve]. Same read-out and setting: the same measure for `O=C(c1cc(=O)c2ccccc2o1)N1CCN(c2cccc(Cl)c2)CC1`: 4.47 µM [falling, full curve, poor fit]; for `O=C(NCc1ccco1)C1CCCN1C(=O)Nc1ccccc1Cl` (stereo not drawn): 11.2 µM [rising, single point]; for `CCCCSCCCNC(=O)Nc1cccc(OC)c1`: 0.291 µM [falling, full curve, poor fit]. The same measure, in the same setting: the same measure for `CN(C)S(=O)(=O)c1cccc(NC(=O)CCCSc2ccccc2)c1`: 10 µM [falling, partial curve, poor fit]; for `Cc1ccc(Nc2nc(-c3sc(NC(=O)c4cccc(Cl)c4)nc3C)cs2)cc1`: 12.6 µM [falling, partial curve]. On the same count and under the same terms, under `COc1ccc(/C(N)=N/OC(=O)CC2CCCCC2)cc1` stands 2.82 µM [rising, full curve]; under `COc1ccc(Oc2ccc(C(F)(F)F)cc2N)cc1`, 7.94 µM [rising, partial curve]. For `COc1ccc(OC)c2sc(N(CCCN(C)C)C(=O)c3ccc(S(=O)(=O)N4CCc5ccccc5C4)cc3)nc12`, the AC50 is, setting by setting: under setting [1], 25.9 µM [falling, partial curve, poor fit]; under setting [2], 18.4 µM [rising, partial curve, poor fit].

In the case of `COc1cc(OC)cc(C(=O)Nc2nnc(SCC(=O)NCC3CCCO3)s2)c1` (stereo not drawn), under setting [1], the half-maximal activity concentration (AC50) is 3.16 µM [rising, single point]. Turning to `COc1cccc(-c2nnc3n2N=C(c2cc(OC)ccc2OC)CS3)c1`, under setting [1], the AC50 is 3.98 µM [rising, single point].

Regarding `CSc1ccccc1NC(=O)C1CC(c2ccccc2Cl)=NO1` (stereo not drawn), the AC50 under setting [1] is 8.91 µM [falling, partial curve].

`O=C1CCCCCCC1Sc1ccccc1[N+](=O)[O-]` (stereo not drawn): the AC50 under setting [1] was 4.11 µM [falling, full curve, poor fit].

For the compound `CCOC(=O)COc1ccc(S(=O)(=O)N2CCN(c3ccc(OC)cc3)CC2)cc1`, the AC50 under setting [1] was 3.55 µM [rising, single point].

Take `Cc1ccc(-c2nc(NCCN(C)C)c3ccccc3n2)cc1`: the AC50 under setting [1] was 35.5 µM [falling, single point].

`CC(=O)[C@@H]1[C@@H]2C(=O)N(Cc3ccccc3)C(=O)[C@@H]2C2c3ccccc3C=CN21` (stereo partly drawn): under setting [1], the AC50 was 28.2 µM [falling, partial curve, poor fit]. Same read-out and setting: the same measure for `CCc1ccc(-c2ccc3nnc(SCC(=O)Nc4cccc(C(C)=O)c4)n3n2)cc1`: 5.62 µM [rising, single point]; for `O=C(/C=C/c1ccccc1)NC(=S)Nc1cccnc1`: 10 µM [rising, partial curve, poor fit]. Turning to `CSc1ccc(CNc2nc3ccccc3n3cnnc23)cc1`, under setting [1], the AC50 was 0.708 µM [rising, full curve, poor fit]. Regarding `CCOP(=O)(OCC)C(NCc1ccccc1)c1ccc(Br)cc1` (stereo not drawn), the AC50 under setting [1] was 14.6 µM [falling, single point]. For `COc1ccc(S(=O)(=O)N2CCOCC2)cc1NC(=O)/C=C/c1ccc(F)cc1`, the AC50 under setting [1] is 1.84 µM [rising, partial curve, poor fit] and the AC50 under setting [2] is 18.4 µM [falling, partial curve, poor fit].

`CN(C)CCNC=C(C(=O)Nc1ccc(Cl)cc1Cl)C(=O)Nc1ccc(Cl)cc1Cl`: the AC50 under setting [1] was 16.4 µM [rising, partial curve, poor fit]. In the case of `CCCNC(=O)Cn1c(=O)cc(C)c2c(C)nn(-c3cccc(F)c3)c21`, the AC50 under setting [1] is 20 µM [falling, partial curve, poor fit]. Still for that read-out and setting: under `O=C(NCCN1C(=O)CSC1=O)C1CC(=O)N(c2ccccc2)C1` (stereo not drawn) stands 2.91 µM [rising, single point]. On the same count and under the same terms, under `NNc1nc(N)c2c(n1)-c1ccccc1CC21CCCC1` stands 9.2 µM [falling, partial curve].

Source of the values: PubChem BioAssay AID493014 (National Center for Advancing Translational Sciences (NCATS), 2011).
